Laboratory results published in publication doi:10.1101/2024.01.10.574961.
These are yes or no findings as the source states them, for the method shown. In cells and extracts the contact can be indirect. Some results given as binding are weak or reduced against the parent protein; the word gives no strength. Sequences can lack the tags named with a protein.

Columns and labels:
Tea4-GFP (S. pombe) = molecular target: T1, Tea4-GFP (S. pombe) (UniProt O60132); experiment: co-IP
T1 sequence: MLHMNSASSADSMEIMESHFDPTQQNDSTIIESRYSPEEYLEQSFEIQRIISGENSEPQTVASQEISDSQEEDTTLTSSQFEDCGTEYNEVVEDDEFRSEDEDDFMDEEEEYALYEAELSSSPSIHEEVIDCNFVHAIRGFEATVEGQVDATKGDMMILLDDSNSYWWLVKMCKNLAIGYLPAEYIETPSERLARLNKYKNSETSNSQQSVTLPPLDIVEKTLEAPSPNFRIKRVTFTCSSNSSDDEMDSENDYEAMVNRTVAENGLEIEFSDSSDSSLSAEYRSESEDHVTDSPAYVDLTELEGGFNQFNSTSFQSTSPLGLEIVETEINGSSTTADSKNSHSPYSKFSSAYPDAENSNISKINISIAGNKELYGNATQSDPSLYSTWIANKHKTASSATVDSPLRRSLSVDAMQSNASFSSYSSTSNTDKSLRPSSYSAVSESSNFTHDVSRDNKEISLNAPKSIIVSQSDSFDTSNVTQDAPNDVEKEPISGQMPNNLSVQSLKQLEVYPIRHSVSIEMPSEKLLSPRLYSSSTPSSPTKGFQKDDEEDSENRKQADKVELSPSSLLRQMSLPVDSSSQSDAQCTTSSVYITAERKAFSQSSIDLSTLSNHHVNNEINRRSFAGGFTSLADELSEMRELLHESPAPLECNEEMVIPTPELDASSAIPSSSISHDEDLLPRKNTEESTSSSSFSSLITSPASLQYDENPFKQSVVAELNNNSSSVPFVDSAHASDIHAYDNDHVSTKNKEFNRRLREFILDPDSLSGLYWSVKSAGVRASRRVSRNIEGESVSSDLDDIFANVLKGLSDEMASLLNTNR

Tea1-GFP (S. pombe) = molecular target: T2, Tea1-GFP (S. pombe) (UniProt P87061); experiment: co-IP
T2 sequence: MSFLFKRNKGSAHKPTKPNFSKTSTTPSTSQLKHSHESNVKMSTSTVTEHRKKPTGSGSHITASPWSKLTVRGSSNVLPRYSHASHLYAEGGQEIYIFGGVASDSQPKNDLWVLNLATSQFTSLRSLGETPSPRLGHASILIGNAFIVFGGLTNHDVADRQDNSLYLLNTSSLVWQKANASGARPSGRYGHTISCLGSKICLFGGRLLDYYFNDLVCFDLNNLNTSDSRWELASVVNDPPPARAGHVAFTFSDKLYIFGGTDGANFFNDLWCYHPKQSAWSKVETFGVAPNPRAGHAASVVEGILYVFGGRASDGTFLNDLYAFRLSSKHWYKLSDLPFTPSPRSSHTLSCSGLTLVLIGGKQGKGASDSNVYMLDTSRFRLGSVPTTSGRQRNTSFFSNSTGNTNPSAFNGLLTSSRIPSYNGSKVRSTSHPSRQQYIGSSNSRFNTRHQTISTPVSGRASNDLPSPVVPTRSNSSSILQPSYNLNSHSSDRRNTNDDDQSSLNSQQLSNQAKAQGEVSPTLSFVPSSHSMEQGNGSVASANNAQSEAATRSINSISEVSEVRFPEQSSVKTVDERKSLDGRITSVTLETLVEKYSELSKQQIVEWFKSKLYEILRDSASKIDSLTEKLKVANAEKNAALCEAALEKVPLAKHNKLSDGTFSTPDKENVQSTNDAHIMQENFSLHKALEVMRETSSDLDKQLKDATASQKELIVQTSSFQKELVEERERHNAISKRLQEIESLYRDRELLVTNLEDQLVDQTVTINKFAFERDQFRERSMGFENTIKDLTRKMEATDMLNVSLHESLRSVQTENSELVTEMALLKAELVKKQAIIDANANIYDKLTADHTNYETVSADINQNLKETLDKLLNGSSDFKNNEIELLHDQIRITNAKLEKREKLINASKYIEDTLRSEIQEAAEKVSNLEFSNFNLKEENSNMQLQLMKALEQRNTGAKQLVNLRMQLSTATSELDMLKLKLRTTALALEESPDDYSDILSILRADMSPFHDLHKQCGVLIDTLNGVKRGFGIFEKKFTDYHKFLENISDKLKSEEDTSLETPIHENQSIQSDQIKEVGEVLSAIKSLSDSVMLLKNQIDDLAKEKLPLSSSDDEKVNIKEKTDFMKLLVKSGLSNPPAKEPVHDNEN

GST-Tea4 (S. pombe) = molecular target: T3, GST-Tea4 (S. pombe) (UniProt O60132); experiment: pull-down
T3 sequence: T1 sequence

binding (Tea4-GFP (S. pombe)): binds | binding (Tea1-GFP (S. pombe)): no binding | binding (GST-Tea4 (S. pombe)): binds
B1: Rgf1-HA (protein, UniProt Q9Y7U6 1-1334)
chain: MDYRHPNALGVNESSRAYEEIFGAPRKREPARTVSTPAFMEPAPVSKKPLPPPTRRLPRKPLPFRSTSLQPPSSQPPAPPTHQREASPVKNIEHSESFPSVFGTSNNHQIVPLTLKDGNDFGALYASLNTTPHFPQVSNHAPNNSNSPSLTWHTSSGDDSNQNPFFVRRQSQSSTSPVSDSVDENLLSAVSSVTESVETNLHLDQNYPYGSPVRSSKNPFLSSNSRLPTDDSSHTVGSHSFTSGTHPPIVSSNSAFTLPNAVTPAAQAPLIRSVSEYPANVSPPAQSLQLPKSTSNPADLHLSIASASSHKNIFSGLDVFSNVFHGPSTTLRDREHDMRNRSFDHSTLAHYEAVKQQRLGVEPTARSFTLSSYKSRASGNSLINDRSSTTTPTFVNSEASSPVHKNKRRRRIYAALLSRVASELLDRLQLGDITKDGLIYSNAFTGDHAVTVLMGIIHTSDRNLALLVGRSLDAQKFIHDVTYDHRLRDSHREIYQLQGTGYRPFLRANDNASINNKNHHKELEDNESGTRISPSTLGDTSFPNGIFTLLTHCYSPTCAKDHPCYSISCPRRLEQQHRLFAKMRANTEQSSSLAFDDKEQKLWIHSVPQEIAYSVSDRERKRQEVICEVIYTERDFVKDLEYLRDYWIKPLWASSCIPERKKEKFIRTVFLNALEVQAVNSKLAEALTKRQNYKPIVDNIADIFLEHVPKFEPFIRYGAGQLYGKYEFEKEKSSNPAFAKFVSDVERLKESRKLELNGYLTKPTTRLARYPLLLEAVLKYTDEGNPDKQDIPKVINIVRGFLSRLNVESGKAENKFNLFHLNQQLVFKPGEHYDLHLLDANRQLIFKGPLKKRSAGSTSSESASDVTLFLFDHALLIVKPKTINKRELLKVFQRPIPLLLLQLFLVDDNGLRIPYSSKQQLAAVSKAANGKPPSRFYPFSLQLLGRRGYEITLYATTEVSRDKWLEHIDNQQTLLQHRNQWFESVTICSNFFVGDNKVNAIGVYDSGRRLLYGTDTGVYVSLRKANSPLQFKPVRALNIPNISQLEVIEEYSLLLLLSDKVLYSYPLEMIDADTTQAPKKARKVSGHTTFFRVGICLGKVLVCAVKSSVLSATIKVFEPVTNYSKTRNMPSLKKFLTVNQDPLRIVKELYIPTESTSVHFLKNKLCVGCTRGFEVVSLDNLETQSLLDPADTSLEFVEKKENVKPIAIYRMNGGEFLLCYSQFAFYVNRDGWRSRPTWFVVWEGSPQNFALSYPYILAFEPTFIEIRHVETSELIHVISGRNIRLLADGRGKLGDGGEIFYACDQRGENCETSVVCSLRLTSAAAHAKEQHVDK
